# Data reported in patent publication US9657059B2, “Immune system modulators” (Canimguide Therapeutics AB, priority 2013, dated 2017).
# Not every detail of the peptide structures is certain; ends, links or a residue may be inferred. No end group written: not given here.
# System: PBMCs
# Experiment: IL-2 induced proliferation of PBMCs, ex vivo model (3H-thymidine)
# Assay type: cell-based, human
# Settings: PBMCs from healthy control samples, 7 days
# Experimental: 100 μl of RPMI1640 supplemented with 200 IU/ml penicillin, […] streptomycin, 4 mM L-glutamine (all from Sigma Chemical Co. MO, US) and 20% heat-inactivated human serum (autologous or from cancer patients) were added to uncoated, HSA or HSA/IgG coated tissue culture microtiter plates. PBMC, isolated from healthy individuals or patients with metastatic renal cell carcinoma, were diluted in RPMI/2% HSA at a concentration of 5×10^5/ml and 100 μl were added to the microtiter wells. Interleukin-2 (IL-2, Proleukin, Chiron, NL), at a final concentration of 120 IU/well, was added to some wells. Cells were cultured for 7 days in a humidified, 5% CO2-atmosphere at 37° C. Proliferation was assayed by incorporation of 1.6 μCi/well of [^3H]-thymidine (Amersham Int., UK) during the last 18 hrs. Mean values of dpm (disintegrations per minute) of triplicates were used for the calculations.
# Cultures for IL-2 induced proliferation was set up with PBMC from healthy donors and autologous serum as described above with the exception that PBMC were first pre-incubated for 30 min at room temperature with the indicated albumin peptides at a concentration of 10 μg/ml. […]
# The effect of different peptides on IL-2 induced proliferation was analyzed in the human ex vivo model, using PBMCs from healthy control samples. […] Proliferation was measured as incorporation of ^3H-thymidine during the final 18 hours. […]
row,Sequence,effect on IL-2 induced proliferation
1,ELFEQLGEYKFQNALLVR [P3027],none of the other peptides identified by their binding to the artificial cell surface had any inhibitory activity
2,NEETFLKKYLYEIARRHPYFYAP [P3026],none of the other peptides identified by their binding to the artificial cell surface had any inhibitory activity
